According to PubChem BioAssay AID540276 (National Center for Advancing Translational Sciences (NCATS), 2011):
Values joined by “and” are separate entries in the source; they are usually repeats but may differ in a detail not shown here. Equal entries are not always repeated. The campaign covered roughly 300,000 compounds. About 5,400 (1.8%) were called active. This list was built around the results that the source calls inconclusive (neither active nor inactive); the mix of calls is not that of the screen. Calls come from the whole dose curve; tested in HEK293 cells. Potencies of inconclusive entries are doubtful fits and often do not repeat.

experiment: qHTS for inhibitors of binding or entry into cells for Marburg Virus; conditions: Marburg virus pseudotyped entry inhibition, cell reporter; activity change, negative = inhibition: at 37.8 µM (top of the series) unless noted
% is set by controls: 0 for no effect and ±100 for the full control effect; potency is the fitted concentration of half-maximal effect.

SMILES	Potency	activity change, negative = inhibition
COc1ccc(/C=C\c2onc(C)c2S(=O)(=O)N2CCC(C(=O)NCc3ccco3)CC2)cc1	inactive	–
CC(=O)N1CCN(c2ccc(NC(=O)c3ccccc3Cl)cc2)CC1	inactive	–
COc1ccc(NC(=O)C2CCCN2S(=O)(=O)c2ccc(Cl)cc2)cc1 (stereo not given)	inconclusive: 5.62 µM [inhibitor, single point]	–
O=C(NCc1ccccn1)c1ccc(OC2CCN(Cc3ccc(F)cc3F)CC2)cc1	inconclusive: 0.562 µM [inhibitor, full curve, poor fit]	–
CCOc1ccc(C(=O)NC(=S)Nc2cccnc2)cc1[N+](=O)[O-]	–	inconclusive: 28.5% [activator] [at 46.1 µM]
O=C(COC(=O)c1ccccc1Br)NCCN1C(=O)CSC1=O	inactive	–
COc1ccc(-c2csc(NC(=O)CSc3nnnn3C)n2)cc1OC	inconclusive: 31.6 µM [activator, single point]	–
OC1(c2ccc(Br)cc2)CN(c2ccccc2)C2=[N+]1CCS2 (stereo not given)	inconclusive: 10 µM [inhibitor, partial curve, poor fit]	–
COc1ccc(CCNC(=O)CSc2nnc(-c3cccc(C)c3)o2)cc1OC	inactive	–
N#CC1=CN(Cc2ccccc2)C=C(/C=N/Nc2ccccc2)C1	inconclusive: 11.2 µM [inhibitor, partial curve, poor fit]	–
COc1cccc2cc(C(=O)Nc3cc(Cl)ccc3N3CCOCC3)c(=O)oc12	inconclusive: 3.55 µM [inhibitor, single point]	–
CC(C)CSc1nnc2c3ccccc3n(C)c2n1	inconclusive: 1.41 µM [activator, partial curve, poor fit]	–
CCOC(=O)c1c(NC(=O)CSc2nnc(-c3cccnc3)n2Cc2ccco2)sc(C)c1C	inconclusive: 35.5 µM [inhibitor, single point]	–
CCN1CC=C(c2c[nH]c3ccccc23)CC1	inconclusive: 3.16 µM [activator, partial curve, poor fit]	–
C=CCc1cccc2cc(C(=O)Nc3ccc(CC(=O)O)cc3)c(=O)oc12	inconclusive: 5.62 µM [inhibitor, partial curve]	–
COc1cccc(/C=N/n2cncn2)c1OCC#N	inconclusive: 6.51 µM [inhibitor, single point]	–
CC(C)Oc1ccc(C(=O)Nc2ncn[nH]2)cc1	inactive	–
Cc1occc1C(=O)Nc1sc2c(c1C(N)=O)CCCCC2	inconclusive: 10 µM [inhibitor, partial curve, poor fit]	–
Cc1cc(C)cc(NC(=O)c2c(C)nc3ccccn23)c1	inconclusive: 1.26 µM [inhibitor, partial curve, poor fit]	–
COc1ccc(CCN=C(N)Nc2nc(C)cc(C)n2)cc1	inconclusive: 2.82 µM [inhibitor, full curve, poor fit]	–
Nc1cc(-c2ccccc2)nn1Cc1ccc(Cl)cc1	inconclusive: 15.8 µM [inhibitor, single point]	–
COc1ccc(C2=NN(S(C)(=O)=O)C(c3cccs3)C2)cc1 (stereo not given)	inconclusive: 35.5 µM [activator, single point]	–
O=S(=O)(c1ccc(N=C2NN=C(c3cc(F)ccc3F)CS2)cc1)N1CCOCC1	active: 5.01 µM	–
O=C1CCCN1CC(=O)N1CCCC(N2CCN(c3cccc(Cl)c3)CC2)C1 (stereo not given)	inconclusive: 0.794 µM [inhibitor, partial curve, poor fit]	–

SMILES	Potency	activity change, negative = inhibition
CCC(Cn1nnc2ccccc2c1=O)NC(=O)Nc1cc(OC)cc(OC)c1 (stereo not given)	inconclusive: 22.4 µM [inhibitor, single point]	–
C=CCNC(=S)NNC(=O)COc1ccc(Cl)cc1Cl	inconclusive: 14.1 µM [activator, single point]	–
Cc1ccc(C(=O)N/C(=C\c2cn(C)c3ccccc23)C(=O)N2CCN(C)CC2)cc1	inactive	–
CCOc1ccc(C(C)NC(=O)C2CCCC2)cc1 (stereo not given)	inconclusive: 35.5 µM [inhibitor, single point]	–
COc1ccc2[nH]c(=O)c(C(c3nnnn3C3CCCC3)N3CCN(Cc4ccc5c(c4)OCO5)CC3)cc2c1 (stereo not given)	inconclusive: 23.1 µM [inhibitor, partial curve, poor fit]	–
Cc1ccc2oc(-c3ccc(NC(=O)c4cccnc4)cc3)nc2c1	inconclusive: 35.5 µM [inhibitor, single point]	–
Cc1cccc(N(C)C(=O)CCS(=O)(=O)c2cccc3nonc23)c1	inactive	–
COc1ccc(-c2c[n+]3c(n2-c2ccccc2)SCC3)cc1	inconclusive: 1.12 µM [inhibitor, full curve, poor fit]	–
COc1ccc(NC(=O)Cn2cc(S(=O)(=O)c3ccccc3)c(=O)c3cc(C)ccc32)cc1Cl	inactive	–
CCOC(=O)c1csc(NC(=O)c2ccc(OC)c(OC)c2)n1	inconclusive: 0.116 µM [inhibitor, full curve, poor fit]	–
O=C(CSc1nccn1-c1ccccc1)c1ccc(Br)cc1	inactive	–
C#CCCCO/N=C1/C[C@@H](O)[C@@H](O)[C@@H]2[C@@H]3C(=O)N(C[C@@H]4CCCO4)C(=O)[C@H]3CC[C@@H]12	inactive	–
CCNc1c(NCC)c(=O)c1=O	inconclusive: 1.12 µM [inhibitor, single point]	–
CC(c1ccccc1)n1cnc2ccccc21 (stereo not given)	inactive	–
CC(C)CNC(=O)c1cc([N+](=O)[O-])ccc1N1CCCCC1	inactive	–
CCOc1cccc(C(=O)NC(=S)Nc2ccccc2)c1	inconclusive: 0.355 µM [activator, full curve, poor fit]	–
CCc1ccc(C(=O)NNC(=O)C2CC(=O)N(Cc3ccccc3)C2)cc1 (stereo not given)	inactive	–
Cc1ccc(NC(=O)CSc2ncnc3ccccc23)cc1S(=O)(=O)N1CCOCC1	inconclusive: 31.6 µM [inhibitor, single point]	–
Cc1cc2cc3c(cc2nc1SCC(=O)Nc1c(C)cccc1C)CCC3	inconclusive: 14.6 µM [inhibitor, partial curve]	–
O=C(Nc1nnc(-c2ccc3c(c2)OCCO3)o1)C1CCCCC1	inactive	–
CC1=NC(SC(C(=O)O)C2CCCCC2)=NC(=O)C1 (stereo not given)	inconclusive: 29.1 µM [activator, single point]	–
NNc1nncc2ccccc12	inconclusive: 18.3 µM [activator, partial curve, poor fit] and inconclusive: 112 nM [activator, full curve]	–
O=C1C2C3c4ccccc4C(c4ccccc43)C2c2nc3ccccc3n21 (stereo not given)	inconclusive: 11.2 µM [inhibitor, partial curve]	–
COCCNC(=S)Nc1ccc2nsnc2c1	inactive	–

Part of the list above in order of count of non-hydrogen atoms, smallest number first.
SMILES	Potency	activity change, negative = inhibition
CCOc1ccc(C(C)NC(=O)C2CCCC2)cc1 (stereo not given)	inconclusive: 35.5 µM [inhibitor, single point]	–
CC(C)CNC(=O)c1cc([N+](=O)[O-])ccc1N1CCCCC1	inactive	–
CCc1ccc(C(=O)NNC(=O)C2CC(=O)N(Cc3ccccc3)C2)cc1 (stereo not given)	inactive	–

Continued.

SMILES	Potency	activity change, negative = inhibition
CCOCCCNC(=O)CCCOc1ccccc1	inactive	–
CCCCNC(=S)Nc1ccc2nc(N3CCN(CC)CC3)cc(C)c2c1	inconclusive: 11.2 µM [inhibitor, partial curve, poor fit]	–
O=C(c1ccccc1)C(Nc1ccccn1)c1ccccc1 (stereo not given)	inconclusive: 35.5 µM [activator, single point]	–
CCN(CC)S(=O)(=O)c1ccc(N2CCOCC2)c(NS(=O)(=O)c2cc(C(C)(C)C)ccc2C)c1	inconclusive: 13 µM [inhibitor, partial curve, poor fit]	–
COc1cc(SC)ccc1C(=O)OCC(=O)N1CCCC1	inactive	–
COC(=O)C1=C(O)/C(=C\c2cc(C)n(-c3ccccc3C)c2C)N=C1C	inconclusive: 3.26 µM [activator, partial curve]	–
Cc1ccc(OCCSc2cc(C)nc(N)n2)cc1	inactive	–
S=C(NCc1ccccn1)Nc1ccc(Cl)c(Cl)c1	inactive	–
Cc1cc(C)c2nc(N3CCCC(C(=O)NCCN4CCOCC4)C3)sc2c1 (stereo not given)	inactive	–
c1ccc(CCNc2ncnc3sccc23)nc1	inconclusive: 7.94 µM [inhibitor, partial curve, poor fit]	–
CCCCOC(=O)Cn1c(=O)n(CC(=O)OCCCC)c2cc(C)ccc21	inconclusive: 11.2 µM [inhibitor, partial curve, poor fit]	–
CS(=O)(=O)N(CC(=O)N1CCCC1)c1cccc(F)c1	inconclusive: 6.31 µM [inhibitor, single point]	–
COc1ccc(CCNC(=O)COc2ccc3c(C)cc(=O)oc3c2)cc1OC	inconclusive: 22.4 µM [inhibitor, single point]	–
Cc1nc(Nc2ccc3c(c2)OCCO3)c2oc3ccccc3c2n1	inconclusive: 35.5 µM [inhibitor, single point]	–
O=C(NCCCc1ccccc1)c1cccc([N+](=O)[O-])c1	inactive	–
CN1CCC(N(C)S(=O)(=O)c2ccc(NC(=O)COc3cccc(C(F)(F)F)c3)cc2)CC1	inconclusive: 25.1 µM [inhibitor, single point]	–
Cc1ccc(C(C)C)c(OCc2n[nH]c(=S)o2)c1	inactive	–
Cc1nnc(SCC(=O)Nc2sc3c(c2C#N)CCCCC3)n1N	inconclusive: 8.91 µM [activator, partial curve, poor fit]	–
CCn1c2ccccc2c2cc(NC(=O)C(=O)N3CCOCC3)ccc21	inconclusive: 3.16 µM [activator, single point]	–
CCCCc1c(O)c2ccccc2n(CCCC)c1=O	inactive	–
O=C(Nc1ccc(CN2CCOCC2)cc1)c1cccc(F)c1	inconclusive: 1.64 µM [activator, partial curve, poor fit]	–
COc1ccc(C2=Nn3c(nnc3-c3ccncc3)SC2)cc1OC	inconclusive: 7.3 µM [inhibitor, partial curve, poor fit]	–
